From doi:10.1101/2023.11.07.565948
Results are given in words; binding and its absence hold for the method and conditions named. Binding seen in cells or lysates may run through a third protein. Binding calls can cover weak binding; strength is not graded here.

Chains of the proteins cited; added tags and fusions are not shown. Lines headed by an entry give the natural chain unless they say otherwise; changes in a name come on top.
UniProt P16615, whole entry, stated change not applied: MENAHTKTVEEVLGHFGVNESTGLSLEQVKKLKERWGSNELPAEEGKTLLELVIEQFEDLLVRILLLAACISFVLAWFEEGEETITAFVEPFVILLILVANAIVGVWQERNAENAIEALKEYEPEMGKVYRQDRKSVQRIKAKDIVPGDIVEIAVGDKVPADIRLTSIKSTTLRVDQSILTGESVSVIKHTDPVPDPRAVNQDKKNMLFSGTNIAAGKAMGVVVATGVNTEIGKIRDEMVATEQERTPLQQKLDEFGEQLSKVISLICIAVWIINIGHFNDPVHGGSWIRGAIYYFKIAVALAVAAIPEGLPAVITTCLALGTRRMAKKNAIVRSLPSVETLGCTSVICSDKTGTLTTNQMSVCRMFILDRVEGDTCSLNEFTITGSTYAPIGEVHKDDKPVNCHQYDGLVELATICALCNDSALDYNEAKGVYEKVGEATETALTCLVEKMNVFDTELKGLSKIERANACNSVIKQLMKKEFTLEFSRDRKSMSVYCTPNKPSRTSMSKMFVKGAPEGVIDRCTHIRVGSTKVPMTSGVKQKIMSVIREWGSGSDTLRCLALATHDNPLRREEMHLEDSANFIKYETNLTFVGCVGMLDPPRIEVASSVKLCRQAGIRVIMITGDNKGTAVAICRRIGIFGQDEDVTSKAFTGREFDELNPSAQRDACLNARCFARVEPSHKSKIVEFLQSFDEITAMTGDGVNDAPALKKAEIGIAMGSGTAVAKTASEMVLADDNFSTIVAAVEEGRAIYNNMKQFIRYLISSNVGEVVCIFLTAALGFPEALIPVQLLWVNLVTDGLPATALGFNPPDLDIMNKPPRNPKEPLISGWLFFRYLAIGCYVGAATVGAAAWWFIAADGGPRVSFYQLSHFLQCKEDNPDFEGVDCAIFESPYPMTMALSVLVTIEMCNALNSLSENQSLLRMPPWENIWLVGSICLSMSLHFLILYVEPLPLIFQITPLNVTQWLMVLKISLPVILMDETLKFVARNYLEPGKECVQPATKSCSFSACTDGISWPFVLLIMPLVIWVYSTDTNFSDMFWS

Target: SERCA2 (sarco-ER Ca2+ ATPase 2) (human (endogenous in HEK293)) (UniProt P16615)
Experiment: co-IP

Myc-tagged SELENOT^U49C (selenoprotein T, selenocysteine 49 changed to cysteine) (from UniProt P62341)
binding: binds
